According to US4121009A, “Anti-static fabric softening compositions and processes for drying and softening textiles therewith” (priority 1976, dated 1978):

What was measured:
[1] = Rusting or rust inhibitory properties by VCS color (Example 60); details: 1% solids in water; for VCS Color, Final (B): 96 hours exposure to coupons; for Extent of Rusting (B-A): 96 hours, VCS color difference
[2] = Softness of padded terry cotton swatches, paired comparison by panel of 10 judges (Example 28); details: about 0.1% active add-on
[3] = Soil release of padded dacron-cotton permanent press swatches (Examples 44-52); details: 1-worst, 4-best

## CCCCCCCCCCCCCCCCCC[N+](C)(C)CCCCCCCCCCCCCCCCCC [Dimethyl distearyl ammonium methosulfate, dimethyl distearylammonium methosulfate]
[1]
  VCS Color, Initial (A): 3.0
  VCS Color, Final (B): 6.5
  Extent of Rusting (B-A): 3.5

## CCCCCCCCCCCCCCCCCC[N+](C)(C)CCCCCCCCCCCCCCCCCC.[Cl-] [Distearyl dimethyl ammonium chloride, dimethyldistearylammonium chloride]
[2]
  softness versus untreated control swatches: much superior to the softness of untreated control swatches
[3]; W-P-S-W
  Soil Release Score, MO (Mineral Oil): 1
  Soil Release Score, VO (Vegetable Oil): 1
[3]; W-P-W-S-W
  Soil Release Score, MO (Mineral Oil): 1
  Soil Release Score, VO (Vegetable Oil): 1
[1]
  VCS Color, Initial (A): 3.0
  VCS Color, Final (B): 7.0
  Extent of Rusting (B-A): 4.0
